Assay results: US20150239953A1
These are yes or no findings as the source states them, for the method shown. In cells and extracts the contact can be indirect. Some results given as binding are weak or reduced against the parent protein; the word gives no strength.

By UniProt entry, the sequences of proteins in these tests, tags left out.
UniProt P29351: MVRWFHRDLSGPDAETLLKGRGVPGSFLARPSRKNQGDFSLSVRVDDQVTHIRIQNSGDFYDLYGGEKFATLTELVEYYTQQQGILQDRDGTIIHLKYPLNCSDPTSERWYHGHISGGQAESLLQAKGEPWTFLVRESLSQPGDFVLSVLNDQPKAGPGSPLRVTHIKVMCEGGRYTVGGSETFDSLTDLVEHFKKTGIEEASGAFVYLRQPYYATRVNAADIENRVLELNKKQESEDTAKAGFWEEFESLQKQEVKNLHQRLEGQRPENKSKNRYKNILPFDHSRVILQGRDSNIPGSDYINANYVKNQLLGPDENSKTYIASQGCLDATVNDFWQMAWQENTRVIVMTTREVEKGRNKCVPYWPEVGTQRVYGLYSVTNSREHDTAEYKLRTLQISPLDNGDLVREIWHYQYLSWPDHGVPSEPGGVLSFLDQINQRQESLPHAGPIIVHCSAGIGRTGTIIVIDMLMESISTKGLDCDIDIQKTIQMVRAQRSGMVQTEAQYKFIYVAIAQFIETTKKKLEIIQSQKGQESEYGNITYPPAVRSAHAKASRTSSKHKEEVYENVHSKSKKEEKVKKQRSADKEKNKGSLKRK

Columns and labels:
Siglec G (mouse) (mouse) [1] = target: T1, Siglec G (mouse) (mouse) (UniProt Q80ZE3); assay: co-immunoprecipitation with anti-Siglec G antisera, Western blot, spleen cells from CD24-/- mice stimulated with CD24Fc
T1 sequence (tyrosine-phosphorylated after CD24Fc stimulation (sites not stated), looked up): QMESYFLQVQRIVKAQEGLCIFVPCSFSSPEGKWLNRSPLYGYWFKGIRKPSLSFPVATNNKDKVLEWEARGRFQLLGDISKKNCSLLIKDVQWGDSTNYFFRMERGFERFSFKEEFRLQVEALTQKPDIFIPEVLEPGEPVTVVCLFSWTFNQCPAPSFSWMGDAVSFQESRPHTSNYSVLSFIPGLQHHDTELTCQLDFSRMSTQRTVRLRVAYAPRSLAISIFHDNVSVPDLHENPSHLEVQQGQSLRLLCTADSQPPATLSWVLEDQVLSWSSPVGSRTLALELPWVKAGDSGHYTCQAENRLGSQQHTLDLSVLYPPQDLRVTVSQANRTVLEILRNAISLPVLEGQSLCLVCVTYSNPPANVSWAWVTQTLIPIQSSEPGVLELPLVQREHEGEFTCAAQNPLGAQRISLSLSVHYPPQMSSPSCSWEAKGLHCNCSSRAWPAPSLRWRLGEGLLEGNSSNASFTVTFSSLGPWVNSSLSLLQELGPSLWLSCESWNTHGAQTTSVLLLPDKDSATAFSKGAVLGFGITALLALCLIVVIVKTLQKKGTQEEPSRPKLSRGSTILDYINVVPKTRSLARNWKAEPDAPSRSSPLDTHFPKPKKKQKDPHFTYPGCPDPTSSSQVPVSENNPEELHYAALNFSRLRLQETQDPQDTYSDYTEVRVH

Siglec G (mouse) (mouse) [2] = target: T1, Siglec G (mouse) (mouse); assay: co-immunoprecipitation with anti-Siglec G antisera, Western blot, spleen cells from CD24-deficient mice stimulated with CD24Fc (1 µg/ml, 30 min)

binding (Siglec G (mouse) (mouse) [1]): binds | binding (Siglec G (mouse) (mouse) [2]): binds
Substance: SHP-1 (from UniProt P29351 1-595) (enzyme)
